Source: US20210009750A1, “3D PRINTING COMPOSITION FOR BIOMATERIALS” (TISSIUM SA, priority 2018, published 2021)

Key:
[1] = Solvent extraction of TPO from 3D printed PGSA constructs; details: 3D constructs immersed in extraction solvent 1 mL/10 mg, 18 to 24 hours, solvent exchanged 3 to 6 times
[2] = Solvent extraction of BBOT from 3D printed PGSA constructs; details: 3D constructs immersed in extraction solvent 1 mL/10 mg, 18 to 24 hours, solvent exchanged 3 to 6 times

SMILES | Extraction solution concentration TPO [1] [ppm] | Extraction solution concentration BBOT [2] [ppm]
CC(C)=O [Acetone, acetone] | 2662 | 442
ClCCl [DCM, dichloromethane] | 2495 | 443
CCOCC [DEE, diethyl ether] | 2762 | 482
C[S+](C)[O-] [DMSO, dimethyl sulfoxide] | 3173 | 494
CCOC(C)=O [Ethyl acetate, ethyl acetate] | 2641 | 461
CC(C)O [IPA, isopropyl alcohol] | 2593 | 395
CN1CCCC1=O [NMP, N-Methyl-2-pyrrolidone] | 2757 | 506
C1CCOC1 [THF, tetrahydrofuran] | 2625 | 461
CCO [etOH, ethanol] | 2779 | 450
